# Assay results published in PubChem BioAssay AID624297 (National Center for Advancing Translational Sciences (NCATS), 2012).
# In all, about 340,000 compounds went through this assay and about 6,200 (1.8%) were called active. The inconclusive results got no clear call from the source; some entries with a clear call stand among them for comparison. Calls come from the whole dose curve; as a rule, active = well fitted activation curve with a large enough effect; inconclusive = small, poorly fitted or top-dose-only effect; inactive = no such curve, though single readings can be large or run the other way. Potencies of inconclusive entries are doubtful fits and often do not repeat.
# Assay: A quantitative high throughput screen for small molecules that induce DNA re-replication in SW480 colon adenocarcinoma cells. For re-replication activation: % of control where 0% means no effect. Note: nearly all actives have a fitted effect of over 55% in size.
# Conditions: Hoechst DNA content imaging, 48 h; re-replication activation: at 46.1 µM (top of the series) unless noted
# How it was run: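 Quantitative HTS format with DMSO vehicle controls; 48 hr drug incubation at 37 C, then 40 min Hoechst staining and scanning imager measurement at 405 nm excitation.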
# Potency is the fitted concentration of half-maximal effect.
Compound,Potency,re-replication activation
Cc1ccc(S(=O)(=O)N2[C@@H](c3ccc(F)cc3)C(C(=O)O)=CC[C@H]2c2ccc3c(c2)OCO3)cc1,"inconclusive: 6.51 µM [activator, single point]",
CC(C)(C)c1ccc(O)c(N=Cc2cc3c(cc2[N+](=O)[O-])OCO3)c1,"inconclusive: 32.6 µM [activator, single point]",
Cc1cccc(N2CCN(C(=O)c3ccc(S(=O)(=O)N(C)c4ccccc4)cc3)CC2)c1C,active: 10.3 µM,
Cc1ccc2oc(C(=O)N(C)CCC(O)c3ccccc3)c(C)c2c1 (stereo not drawn),inactive,
O=S(=O)(c1ccc(Cl)c(S(=O)(=O)N2CCCC2)c1)N1CCCC1,inactive,
O=C(Nc1ccc(F)cc1)c1ccc(C(=O)N2CCCC(O)C2)cc1 (stereo not drawn),"inconclusive: 25.9 µM [activator, single point]",
c1ccc(CC2CCN(c3ncnc4sccc34)CC2)cc1,"inconclusive: 6.51 µM [activator, single point]",
C[C@@H]1CN([C@H](C)CO)C(=O)c2cc(NC(=O)c3ccncc3)ccc2O[C@@H]1CN(C)C(=O)Nc1ccccc1,"inconclusive: 6.51 µM [activator, single point]",
C[C@@H]1C(c2ccccc2)=NN(c2ccccc2)[C@H]1C(=O)N1CCOC1=O,"inconclusive: 4.61 µM [activator, full curve, poor fit]",
CCOC(=O)C1=CN(Cc2cccc(-c3ccc4c(c3)OCO4)c2)S(=O)(=O)N(C)C1C (stereo not drawn),"inconclusive: 0.731 µM [activator, partial curve]",
c1ccc(NNC2=NCCS2)cc1,"inconclusive: 20.6 µM [activator, partial curve]",
CCN1CCN(Cc2ccc(NC(=O)c3ccc(C)c(/C=C/c4cnc(Nc5cc(N6CCNCC6)nc(C)n5)cn4)c3)cc2C(F)(F)F)CC1,"inconclusive: 3.26 µM [activator, partial curve, poor fit]",
CCOC(=O)c1ccc(N=Cc2nc3ccccc3n2C)cc1,"inconclusive: 16.4 µM [activator, partial curve, poor fit]",
Cn1c(SCC(=O)c2ccccc2)nnc1-c1ccc(O)cc1,inactive,
C/C(=N\Nc1nc(C)cc(-c2ccccc2)n1)c1cccc(N)c1,inactive,
Cc1ccnc(NC(=O)CCS(=O)(=O)c2ccccc2)c1,"inconclusive: 16.4 µM [activator, single point]",
CN(Cc1ccccc1)C(=O)c1[nH]cnc1C(=O)NCCCCCNC(=O)OC(C)(C)C,inactive,
O=C(Nc1cccc(Br)c1)c1ccc2c(c1)SC1=NS(=O)(=O)CCN12,inactive,
O=c1cc(N2CCc3ccccc3C2)[nH]c(=O)n1-c1ccc(Cl)cc1,inactive,
O=S(=O)(Nc1cccc2c1CCCC2)c1ccc(Cl)cc1,inactive,
Cc1ccc(C(=O)N/N=C/c2nc3ccccc3n2C)cc1,inactive,
Cc1ccc(S(=O)(=O)N(CC(=O)N2CCc3ccccc3C2)c2cccc(Cl)c2)cc1,"inconclusive: 29.1 µM [activator, partial curve, poor fit]",
O=C(c1ccccc1)N1CCN(CCc2ccccn2)CC1,inactive,

Compound,Potency,re-replication activation
O=C(Nc1ccc(Cl)cn1)Nc1ccccc1F,inactive,
O=C(Nc1nccs1)C1CC2CCC1C2 (stereo not drawn),inactive,
COc1ccc(C(=O)OCc2c(-c3ccccc3)ncc3ccccc23)cc1,active: 14.6 µM,
Cc1cccc(OCC(=O)NCc2cc(C)nc3ccccc23)c1,inactive,
Cc1cc(C)c(S(=O)(=O)Nc2nnc(C)s2)c(C)c1,"inconclusive: 29.1 µM [activator, single point]",
CCOC(=O)c1c(CN2CCN(CCO)CC2)n(-c2ccccc2)c2cc(Br)c(O)cc12,"inconclusive: 23.1 µM [activator, single point]",
CCC(C)NCCOCCOc1ccc(Cl)c(C)c1C (stereo not drawn),"inconclusive: 18.4 µM [activator, single point]",
Cc1ccc2c(Cl)cc(Cl)c(OCC(=O)N3CCOCC3)c2n1,inactive,
C=C(C)[C@@H]1CC=C(CN2CCC(N3CCC(C(=O)N4CCCC4)CC3)CC2)CC1,"inconclusive: 32.6 µM [activator, partial curve, poor fit]",
CN(CC(=O)Nc1cccc(F)c1)C(=O)c1cn(-c2ccccc2)nc1-c1ccccc1,inactive,
Cc1cc(=S)nc(-c2ccccn2)[nH]1,"inconclusive: 13 µM [activator, partial curve, poor fit]",
O=C1C2C3C=CC(C4CC34)C2C(=O)N1Cc1ccccc1 (stereo not drawn),"inconclusive: 7.31 µM [activator, partial curve, poor fit]",
CCOC(=O)C1=C(CSc2nc3ccccc3s2)NC(=O)NC1c1ccc(OC)cc1 (stereo not drawn),inactive,
O=C(c1ccccc1Br)N1N=C(c2ccccc2)CC1c1ccccc1F (stereo not drawn),"inconclusive: 32.6 µM [activator, single point]",
CN(c1ccccc1)S(=O)(=O)c1cccc(NC(=O)C2=NNC(=O)CC2)c1,inactive,
O=C1SCCN1N=Cc1ccc([N+](=O)[O-])o1,"inconclusive: 29.1 µM [activator, single point]",
O=[N+]([O-])c1ccc(S(=O)Cc2ccccc2)c([N+](=O)[O-])c1 (stereo not drawn),active: 23.1 µM,
CCCCNc1c(-c2ccc(OC)c(Sc3ccc(OC)cc3)c2)nc2cnccn12,"inconclusive: 16.4 µM [activator, single point]",
N#CC(C#N)=C(Nc1ccc(F)cc1)SCc1cccc(Br)c1,"inconclusive: 29.1 µM [activator, single point]",
CCC1(c2ccc(F)cc2)NC(=O)N(CC(=O)Nc2ccc(-c3nc4ccc(C)cc4s3)cc2)C1=O (stereo not drawn),"inconclusive: 18.4 µM [activator, single point]",
CCCC/C=C1/CCC(CN(C)C)C1=O (stereo not drawn),"inconclusive: 29.1 µM [activator, single point]",
CCOC(=O)/C=C/c1nc(C(=O)OCC)c(C)c(=O)[nH]1,"inconclusive: 29.1 µM [activator, single point]",
O=C1C2C3C=CC(C3)C2C(=O)N1Nc1ccc([N+](=O)[O-])cc1[N+](=O)[O-] (stereo not drawn),"inconclusive: 0.651 µM [activator, full curve, poor fit]",

Compound,Potency,re-replication activation
O=C(O)COc1ccccc1/C=N/Nc1ccc(S(=O)(=O)N2CCOCC2)cc1[N+](=O)[O-],,inactive: -2.26% [at 1.84 µM]
Cc1ccc(N2CCN(S(=O)(=O)N3CCOCC3)CC2)cc1C,"inconclusive: 29.1 µM [activator, single point]",
Cc1ccc(S(=O)(=O)c2nnn3c2nc(N2CCOCC2)c2ccccc23)cc1,"inconclusive: 6.51 µM [activator, single point]",
Cc1ccc(C(=O)C2=C(O)C(=O)N(Cc3cccnc3)C2c2cccc(Oc3ccccc3)c2)o1 (stereo not drawn),inactive,
O=C(NCc1ccccc1)c1noc2c1CCCCC2,"inconclusive: 6.51 µM [activator, partial curve, poor fit]",
COc1ccc(N2CCN(Cc3nc4c(c(=O)[nH]c(=O)n4C)n3CCCc3ccccc3)CC2)cc1,"inconclusive: 2.59 µM [activator, partial curve, poor fit]",
CCN1C(=O)c2cccc3c(S(=O)(=O)Nc4ncccc4C)ccc1c23,inactive,
Clc1ccc(Cn2cc(/C=N/n3cnnc3)c3ccccc32)c(Cl)c1,"inconclusive: 29.1 µM [activator, single point]",
CCCCOCCCNC(=O)N[C@H](C(=O)OC)C(C)CC (stereo partly drawn),inactive,
CC(=NNC(=S)Nc1ccccc1Cl)c1ccccn1,"inconclusive: 0.0073 µM [activator, full curve, poor fit]",
Cc1cc(C(=O)N/N=C/c2sc(N3CCOCC3)nc2-c2ccccc2)c(C)o1,"inconclusive: 23.1 µM [activator, single point]",
CC(NC(=O)c1ccco1)C(=O)NC(C)c1cc(F)c(Cl)cc1Cl (stereo not drawn),"inconclusive: 23.1 µM [activator, single point]",
CCCS(=O)(=O)c1cnc(C2COc3ccccc3O2)nc1N (stereo not drawn),"inconclusive: 29.1 µM [activator, partial curve, poor fit]",
O=C(c1cc(COc2c(F)cccc2F)on1)N1CCC(c2ccccc2F)C1 (stereo not drawn),"inconclusive: 6.51 µM [activator, single point]",
COC(=O)c1ccc([C@H]2CC(=O)O2)cc1,"inconclusive: 32.6 µM [activator, partial curve, poor fit]",
O=C(O)c1ccc(-c2sc(Nc3ccccc3)n[n+]2-c2ccccc2)cc1,"inconclusive: 2.91 µM [activator, partial curve, poor fit]",
Cn1c(=O)c2c(ncn2CC(COCc2ccccc2Cl)OCc2ccccc2Cl)n(C)c1=O (stereo not drawn),"inconclusive: 16.4 µM [activator, partial curve, poor fit]",
CCN(CC(O)Cn1c2ccccc2c2ccccc21)S(=O)(=O)c1ccc(C)cc1 (stereo not drawn),"inconclusive: 29.1 µM [activator, single point]",
CC(NC(=O)CSc1ncccc1C(=O)O)C1CC2CCC1C2 (stereo not drawn),"inconclusive: 6.51 µM [activator, single point]",
CCOc1ccc(-c2nnc(-c3cccs3)o2)cc1,inactive,
O=C(CCN1CCCCCC1)Nc1ccc(F)cc1,"inconclusive: 20.6 µM [activator, partial curve, poor fit]",
Cc1cccc(CSCCNC(=O)CN(c2cc(C)cc(C)c2)S(C)(=O)=O)c1,"inconclusive: 18.4 µM [activator, single point]",

# Quoted at random: six compounds from above, in no set order.
Compound,Potency,re-replication activation
Clc1ccc(Cn2cc(/C=N/n3cnnc3)c3ccccc32)c(Cl)c1,"inconclusive: 29.1 µM [activator, single point]",
CCN(CC(O)Cn1c2ccccc2c2ccccc21)S(=O)(=O)c1ccc(C)cc1 (stereo not drawn),"inconclusive: 29.1 µM [activator, single point]",
CCCCOCCCNC(=O)N[C@H](C(=O)OC)C(C)CC (stereo partly drawn),inactive,
CCOc1ccc(-c2nnc(-c3cccs3)o2)cc1,inactive,
CC(=NNC(=S)Nc1ccccc1Cl)c1ccccn1,"inconclusive: 0.0073 µM [activator, full curve, poor fit]",
Cc1cc(C(=O)N/N=C/c2sc(N3CCOCC3)nc2-c2ccccc2)c(C)o1,"inconclusive: 23.1 µM [activator, single point]",
